The campaign covered roughly 320,000 compounds. About 22,000 (6.9%) were called active. The inconclusive results got no clear call from the source; some entries with a clear call stand among them for comparison. The call rests on the fitted dose curve; in most records, active means well fitted inhibition curve with a large enough effect; inconclusive means small, poorly fitted or top-dose-only effect, or another doubt; inactive means no such curve, though single readings can be large or run the other way. Where the call is inconclusive, the potency comes from a doubtful curve fit.
assay: Primary qHTS for delayed death inhibitors of the malarial parasite plastid, 96 hour incubation; conditions: P. falciparum luciferase reporter growth; series mostly up to 28.7 µM; activity change, negative = inhibition: at the top concentration
In short: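 Delayed-death screen, second-generation endpoint: infected erythrocytes, 2% hematocrit, 0.05% parasitemia final; 96 hours at 37 C, 5% CO2; luciferase detection reagent; luminescence decrease equals reduced growth.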
On the % scale 0 is the no-effect control and ±100 the full control effect; potency means the concentration at half of the fitted maximal effect.

| SMILES | Potency | activity change, negative = inhibition |
| --- | --- | --- |
| COc1ccc(/C=N/Nc2ccc(C(=O)O)cc2)cc1Br | inconclusive: 18.5 µM [inhibitor, single point] |  |
| Cc1cc(C)n2nc(SCc3nnc(-c4ccccc4Br)o3)nc2n1 | inconclusive: 4.15 µM [inhibitor, single point] |  |
| Cc1nc(-c2ccc(S(=O)(=O)Oc3ccccc3Cl)s2)cs1 |  | inactive: 49.2% |
| Cc1[nH]n(C(N)=S)c(=O)c1N=Nc1cc(C(F)(F)F)ccc1Cl | inconclusive: 16.5 µM [inhibitor, partial curve, poor fit] |  |
| CSc1nc2ccc(C)cc2c(=O)n1-c1cccnc1 | inconclusive: 18.5 µM [inhibitor, partial curve, poor fit] |  |
| Cc1ccccc1NC(=O)c1cc(C(=O)c2cc(Cl)ccc2O)cn(-c2ccccc2C)c1=O | active: 0.738 µM |  |
| COc1ccc(NC(=O)Oc2ccccc2)cc1Cl | active: 14.7 µM |  |
| CCOC(=O)Cc1[nH]nc2c1C(c1cc(OC)ccc1OC)C(C#N)=C(N)O2 (stereo not drawn) | inconclusive: 8.28 µM [inhibitor, single point] |  |
| COc1ccc(C2C(C(=O)c3sc(C)nc3C)=C(O)C(=O)N2CCCn2ccnc2)cc1OC (stereo not drawn) |  | inactive: 16.6% |
| Cc1ccc2c(CN3C(=O)NC4(CCCCC4)C3=O)cc(=O)oc2c1C | active: 0.131 µM |  |
| Cc1ccc(C)c(NC(=O)CSc2nc3nc(-c4cccs4)cc(C(F)(F)F)c3c(=O)[nH]2)c1 |  | inactive: 3.17% |
| COc1ccc(Cc2nc(-c3ccc(Br)o3)no2)cc1OC | inconclusive: 0.37 µM [inhibitor, partial curve, poor fit] |  |
| COc1ccc(CN(CC(=O)NC2CCCC2)C(=O)CCC(=O)Nc2cc(C)on2)cc1 | inconclusive: 10.4 µM [inhibitor, single point] |  |
| O=C(C[n+]1cc(-c2ccc(F)cc2)n2c1CCC2)c1cccs1 | inconclusive: 2.94 µM [inhibitor, full curve, poor fit] |  |
| CCOc1ccc(C(=O)Nc2sc3c(c2C(=O)OC)CC(C)(C)NC3(C)C)cc1 |  | inactive: 38.8% |
| CCN1C(=O)CS/C1=N\S(=O)(=O)c1ccccc1 |  | inactive: 48% |
| Cc1nc(SCC(=O)NNC(=O)c2cccs2)[nH]c(=O)c1C | inconclusive: 18.5 µM [inhibitor, single point] |  |
| O=C(/C=C/c1ccc2c(c1)OCO2)Nc1nc(-c2ccc(F)cc2F)cs1 | inconclusive: 8.28 µM [inhibitor, partial curve, poor fit] |  |
| CN(C)C(=O)CSc1cccc2cccnc12 |  | inactive: 25.3% |
| CCOC(=O)Cc1csc(SCC(=O)Nc2cccc(C#N)c2)n1 | inconclusive: 4.65 µM [inhibitor, partial curve] |  |
| COc1cccc(C(=O)Nc2cc3c(cc2N2CCOCC2)n(C)c(=O)n3C)c1 | inconclusive: 16.5 µM [inhibitor, single point] |  |
| COc1ccc(S(=O)(=O)N[C@@H](Cc2ccc(Cl)cc2)C(=O)N2CC[C@@]3(O)CCCC[C@H]3C2)cc1 | inconclusive: 9.28 µM [inhibitor, single point] |  |
| CC(C)CNC(=S)N(Cc1ccco1)Cc1cc2cc3c(cc2[nH]c1=O)OCCO3 |  | inactive: -3.83% |
| O=C1CCCc2c1cc(C(=O)NCc1ccco1)c(=O)n2-c1ccccc1 | inconclusive: 10.4 µM [inhibitor, single point] |  |
| CC1=CC(C)(C)N2C(=O)C3(C(C#N)=C(N)OC4=C3C(=O)CC(C)(C)C4)c3cc(C)cc1c32 (stereo not drawn) | active: 13.1 µM |  |

| SMILES | Potency | activity change, negative = inhibition |
| --- | --- | --- |
| N#Cc1ccc(CSc2nnc(-c3cccs3)n2-c2ccccc2)cc1 | active: 16.5 µM |  |
| O=C(NC1CCCCC1)c1ccccc1C(F)(F)F |  | inactive: 41.1% |
| COc1cccc(-c2ocnc2C(=O)Nc2ccc3c(c2)CCC3)c1 | inconclusive: 5.22 µM [inhibitor, partial curve] |  |
| CC(C)n1c(SC2C(=O)CC(C)(C)CC2=O)nc2c1c(=O)n(C)c(=O)n2C | inconclusive: 13.1 µM [inhibitor, partial curve] |  |
| COc1ccccc1-n1cc(CN2CCN(CC(C)C)C(CCO)C2)cn1 (stereo not drawn) | inconclusive: 11.7 µM [inhibitor, single point] |  |
| Cc1cc(NC(=O)c2ccc3c(c2)OCCO3)ccc1NC(=O)c1ccco1 |  | inactive: -16.7% |
| CNC(=O)COc1coc(CN2CCN(c3ccccc3F)CC2)cc1=O | inconclusive: 18.5 µM [inhibitor, single point] |  |
| Cc1onc(-c2ccccc2Cl)c1C(=O)N1CCN(c2ccc(F)cc2)CC1 |  | inactive: -2.86% |
| O=C(Nc1nc(-c2ccc3c(c2)OCO3)cs1)c1ccncc1 | active: 4.15 µM |  |
| Cc1ccccc1CS(=O)(=O)c1ccc(C(=O)N2CCOCC2)cc1[N+](=O)[O-] |  | inactive: 1.63% |
| C/C(CC(=O)NCC(C)C)=N\NC(=O)COc1cc(C)c(Br)cc1Br |  | inactive: -29.1% |
| O=C(c1ccco1)N1CCN(C(=O)c2ccccc2NS(=O)(=O)c2ccc(F)cc2)CC1 |  | inactive: 0% |
| COc1ccc(C(=O)O)nc1C |  | inactive: -5.16% |
| CC(=O)N(C)c1ccc(N=C2C(=O)Nc3ccccc32)cc1 | inconclusive: 4.15 µM [inhibitor, single point] |  |
| COc1ccc(C2(CCN=Cc3ccc(N(C)C)cc3)CCOC(C)(C)C2)cc1 (stereo not drawn) | inconclusive: 11.7 µM [inhibitor, single point] |  |
| COc1cccc(N(CC(=O)NCCSc2ccccc2)S(C)(=O)=O)c1 | inconclusive: 8.28 µM [inhibitor, partial curve, poor fit] |  |
| CCCn1nnc(NC(=O)c2ccc3ccccc3c2)n1 |  | inactive: 329% |
| COc1ccc(-c2csc(-c3cccnc3)n2)cc1C | inconclusive: 4.15 µM [inhibitor, full curve] |  |
| O=C(Nn1c(SCc2ccccc2F)nc2ccsc2c1=O)c1ccccc1 | active: 6.57 µM |  |
| CC1=NNC(=O)/C1=C\c1cn(-c2ccccc2)nc1-c1ccc(Cl)cc1 | inconclusive: 2.94 µM [inhibitor, full curve] |  |
| O=[N+]([O-])c1cc(Oc2cccnc2)cc([N+](=O)[O-])c1 | inconclusive: 14.7 µM [inhibitor, single point] |  |
| CC(C)c1ccc(/C=C(\NC(=O)c2ccccc2)C(=O)NCCN2CCOCC2)cc1 | inconclusive: 18.5 µM [inhibitor, single point] |  |
| CC1=NCCN1S(=O)(=O)c1cc([N+](=O)[O-])ccc1Cl | inconclusive: 8.28 µM [inhibitor, single point] |  |
| CCOC(=O)CN(Cc1sccc1C)C(=O)Nc1ccc(OCC)cc1 | inconclusive: 2.62 µM [inhibitor, single point] |  |
| CN(C)CCCSc1ccccc1NC(=O)/C=C/c1ccccc1 | active: 12 µM |  |

Looked up by compound from the list above:

| SMILES | Potency | activity change, negative = inhibition |
| --- | --- | --- |
| CN(C)CCCSc1ccccc1NC(=O)/C=C/c1ccccc1 | active: 12 µM |  |
| O=C(NC1CCCCC1)c1ccccc1C(F)(F)F |  | inactive: 41.1% |
| CCOC(=O)CN(Cc1sccc1C)C(=O)Nc1ccc(OCC)cc1 | inconclusive: 2.62 µM [inhibitor, single point] |  |
| CC(C)n1c(SC2C(=O)CC(C)(C)CC2=O)nc2c1c(=O)n(C)c(=O)n2C | inconclusive: 13.1 µM [inhibitor, partial curve] |  |

Of the compounds above, these have a COOH group.

| SMILES | Potency | activity change, negative = inhibition |
| --- | --- | --- |
| COc1ccc(/C=N/Nc2ccc(C(=O)O)cc2)cc1Br | inconclusive: 18.5 µM [inhibitor, single point] |  |
| COc1ccc(C(=O)O)nc1C |  | inactive: -5.16% |

Continued:

| SMILES | Potency | activity change, negative = inhibition |
| --- | --- | --- |
| CCn1c(SCC(=O)N/N=C/c2ccncc2)nc2ccccc21 | inconclusive: 11.7 µM [inhibitor, single point] |  |
| O=C(O)c1ccccc1C(=O)N1N=C2/C(=C/c3cccc([N+](=O)[O-])c3)CCCC2C1c1cccc([N+](=O)[O-])c1 (stereo not drawn) | inconclusive: 8.28 µM [inhibitor, partial curve] |  |
| Cc1ccc(CN2CN(S(=O)(=O)c3cccs3)c3nc4ccccc4nc32)cc1 |  | inactive: 66% |
| CN(C)C(CNC(=O)CCNC(=O)c1ccc(Cl)cc1)c1ccco1 (stereo not drawn) |  | inactive: 2.38% |
| CC(OC(=O)CNS(=O)(=O)c1ccc(C#N)cc1)C(=O)Nc1cccc(C#N)c1 (stereo not drawn) |  | inactive: -17.9% |
| COc1ccccc1NC(=O)NC1CCS(=O)(=O)C1 (stereo not drawn) |  | inactive: 55.9% |
| CN(Cc1nc2ccccc2c(=O)[nH]1)Cc1nc2ccsc2c(=O)[nH]1 | inconclusive: 1.47 µM [inhibitor, partial curve, poor fit] |  |
| COc1ccc(NC(=O)C(C)N2C(=O)C3CC=C(Cl)CC3C2=O)cc1 (stereo not drawn) |  | inactive: 0.0646% |
| Cc1cc(C)c(C(=O)/C=C/C=C/c2ccccc2)c(=O)[nH]1 |  | inactive: 42.8% |
| Cc1ccc(C(=O)OCC(=O)Nc2cc(C(C)(C)C)nn2-c2ccccc2)c(O)c1 |  | inactive: 6.05% |
| Cc1ccc(-c2nc3ccccc3c(=O)n2-c2cccc(C)n2)cc1 |  | inactive: 268% |
| c1ccc(-n2ncc3c(NCCCN4CCOCC4)ncnc32)cc1 | inconclusive: 18.5 µM [inhibitor, single point] |  |
| O=C(N/N=C/c1cccc(OCc2ccccc2)c1)c1ccc(Br)o1 | inconclusive: 4.15 µM [inhibitor, partial curve, poor fit] |  |
| CC(=O)c1ccc(NC(=O)CSc2ccsc2[N+](=O)[O-])cc1 |  | inactive: 3.99% |
| CS(=O)(=O)c1ccc2nc(NC(=O)c3cccs3)sc2c1 |  | inactive: 146% |
| CC(C)(C)c1cc(NC(=O)Nc2ccccc2OC(F)(F)F)no1 | inconclusive: 2.08 µM [inhibitor, full curve] |  |
| Cc1cc(C)nc(SCc2ccc(C(=O)N/N=C/c3ccncc3)cc2)n1 | inconclusive: 11.7 µM [inhibitor, single point] |  |
| CC(=O)c1ccc(S(=O)(=O)N(C)CCCC(=O)N(C)Cc2c(F)cccc2Cl)cc1 | active: 11.7 µM |  |
| C=CCc1ccc(O)c(-c2ccc(O)c(CC=C)c2)c1 | active: 8.28 µM |  |
| COc1ccc(Cl)cc1S(=O)(=O)N(C)CC(=O)NCc1ccc2c(c1)OCO2 | inconclusive: 0.294 µM [inhibitor, full curve, poor fit] |  |
| COc1cc([C@@H]2c3cc4c(cc3[C@H](O)[C@H]3COC(=O)[C@H]23)OCO4)cc(OC)c1OC | active: 1.07 µM |  |
| O=c1nc(/C=C/c2ccccc2C(F)(F)F)cc(C(F)(F)F)[nH]1 | inconclusive: 18.5 µM [inhibitor, single point] |  |
| COc1ccc(CCNC(=O)Cn2nnc(-c3ccccc3F)n2)cc1OC | inconclusive: 1.85 µM [inhibitor, partial curve, poor fit] |  |

— PubChem BioAssay AID504834 (National Center for Advancing Translational Sciences (NCATS), 2011)
